# Measured values as given in PubChem BioAssay AID504648 (National Center for Advancing Translational Sciences (NCATS), 2011).
# Among all 390,000 compounds or so, about 610 (0.16%) were called active. Inconclusive means that the source gave no clear call. Such entries were picked first, then a sample of the others. The call rests on the fitted dose curve; in most records, active means well fitted inhibition curve with a large enough effect; inconclusive means small, poorly fitted or top-dose-only effect, or effect the other way, or another doubt; inactive means no such curve, though single readings can be large or run the other way. Potencies beside an inconclusive call are fits to weak or partial responses and may not hold up.
# Assay: Nrf2 qHTS screen for inhibitors: counterscreen for cytotoxicity
# Conditions: A549 ARE-Fluc cells, CellTiter-Fluor viability, 18-24 h; activity change, negative = cytotoxicity: at 46 µM (top of the series)
# Summary of the method: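 A549 ARE-Fluc cells in 5% FBS OPTI-MEM, 5000 cells/well, rested 2 h then exposed to compounds in concentration-response for 18-24 h at 37 °C. Viability by CellTiter-Fluor fluorescence (Ex 405/Em 525) after 30 min; luciferase luminescence (BugLite, 15 min, RT) read afterwards.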
# On the % scale 0 is the no-effect control and ±100 the full control effect; potency means the concentration at half of the fitted maximal effect.
Structure (SMILES),Potency,"activity change, negative = cytotoxicity"
CC(=O)N(C(C)=O)N1C(=O)C2C3c4ccccc4C(c4ccccc43)C2C1=O (configuration not stated),"inconclusive: 16.4 µM [falling, partial curve]",
S=C(NCC1CCCO1)Nc1cc(Cl)c(Cl)cc1Cl (configuration not stated),"inconclusive: 23.1 µM [activator, partial curve, poor fit]",
CCOC(=O)c1ccc2ncc(C(=O)OCC)c(Nc3ccc(N4CCOCC4)cc3)c2c1,,inactive: -15.9%
COc1ccc(/C=N/NC(=O)c2cccc([N+](=O)[O-])c2)cc1OS(=O)(=O)c1ccc(C)cc1,"inconclusive: 4.11 µM [activator, partial curve, poor fit]",
CC(C)C(c1nnnn1C1CCCC1)N1c2ccccc2CC1C (configuration not stated),"inconclusive: 14.6 µM [falling, single point]",
O=[N+]([O-])c1ccc(NS(=O)(=O)c2cccc3cccnc23)cc1,"inconclusive: 32.6 µM [falling, partial curve, poor fit]",
COc1cccc(C(=O)/C(C#N)=N/Nc2cccc(-c3ccnc(C)n3)c2)c1,"inconclusive: 29.1 µM [falling, partial curve, poor fit]",
COc1cccc(N2CCN(C(=O)c3cnn(-c4ccccc4Cl)c3C3CCN(C(=O)OC(C)(C)C)CC3)CC2)c1,"inconclusive: 29.1 µM [falling, single point]",
O=C(NCc1ccccc1Br)c1cccc2c1C(=O)c1ccc(-c3ccc(OC(F)(F)F)cc3)cc1S2(=O)=O,"inconclusive: 20.6 µM [falling, single point]",
CCc1ccc2oc(-c3cc(NC(=O)c4cc(OC)c(OC)c(OC)c4)ccc3O)nc2c1,,inactive: -6.17%
O=C(Nc1ccc(F)c(F)c1)c1cnc(-c2ccccc2)nc1-c1ccccc1,"inconclusive: 9.2 µM [falling, partial curve, poor fit]",
CS(=O)(=O)c1ncc(Cl)c(C(=O)Nc2ccc3ccccc3c2)n1,"inconclusive: 29.1 µM [falling, single point]",
O=C(NC(=S)Nn1cnc2c(cnn2-c2ccccc2)c1=O)c1ccccc1,,inactive: -13.7%
C/C(=N\NC(=O)c1cc(-c2cccs2)nc2ccccc12)c1ccccn1,"inconclusive: 0.326 µM [falling, full curve]",
O=C1OC(Nc2ccc(F)c([N+](=O)[O-])c2)c2ccccc21 (configuration not stated),,inactive: -8.9%
O=C(c1ccc(N2CCN(C(=O)c3cccc(F)c3)CC2)cc1)c1cccc(F)c1,"inconclusive: 32.6 µM [falling, partial curve, poor fit]",
COc1ccc(-c2nc(NC(=O)c3cc(C(C)(C)C)nn3C)sc2C)cc1,"inconclusive: 14.6 µM [falling, partial curve]",

# 2 of the compounds above, as tab-separated lines:
Structure (SMILES)	Potency	activity change, negative = cytotoxicity
O=C(NC(=S)Nn1cnc2c(cnn2-c2ccccc2)c1=O)c1ccccc1		inactive: -13.7%
COc1ccc(-c2nc(NC(=O)c3cc(C(C)(C)C)nn3C)sc2C)cc1	inconclusive: 14.6 µM [falling, partial curve]	
